This is an account of results in the supplement of paper PMC11732987, “Enantioselective OTUD7B fragment discovery through chemoproteomics screening and high-throughput optimisation” (Communications Chemistry, 2025).

Sequences of proteins named here, by UniProt entry; tags and fusion partners are left off. A change or cut given only in a name is not applied to a line headed by its entry. Residues count along the entry.
UniProt Q96JM3: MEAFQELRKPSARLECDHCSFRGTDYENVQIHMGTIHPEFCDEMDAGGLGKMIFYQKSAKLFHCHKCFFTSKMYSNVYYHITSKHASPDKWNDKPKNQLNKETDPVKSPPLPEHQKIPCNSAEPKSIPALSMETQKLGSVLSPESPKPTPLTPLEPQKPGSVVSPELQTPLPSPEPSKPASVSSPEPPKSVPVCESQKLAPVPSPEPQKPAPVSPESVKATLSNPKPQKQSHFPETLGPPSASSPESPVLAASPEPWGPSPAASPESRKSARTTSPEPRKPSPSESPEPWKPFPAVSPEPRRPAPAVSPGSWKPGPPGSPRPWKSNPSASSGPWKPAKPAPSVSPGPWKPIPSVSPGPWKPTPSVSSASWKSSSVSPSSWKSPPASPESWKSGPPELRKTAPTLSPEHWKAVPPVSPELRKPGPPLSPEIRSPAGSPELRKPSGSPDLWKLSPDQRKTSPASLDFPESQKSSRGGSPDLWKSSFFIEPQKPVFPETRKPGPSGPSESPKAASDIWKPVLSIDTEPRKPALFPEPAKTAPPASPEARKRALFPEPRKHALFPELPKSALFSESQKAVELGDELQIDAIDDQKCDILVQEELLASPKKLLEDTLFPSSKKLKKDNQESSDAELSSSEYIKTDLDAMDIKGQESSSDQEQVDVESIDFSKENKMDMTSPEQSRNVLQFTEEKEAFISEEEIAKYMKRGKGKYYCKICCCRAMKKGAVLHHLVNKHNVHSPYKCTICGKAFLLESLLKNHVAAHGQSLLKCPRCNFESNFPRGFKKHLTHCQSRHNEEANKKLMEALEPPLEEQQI
UniProt Q9HC77: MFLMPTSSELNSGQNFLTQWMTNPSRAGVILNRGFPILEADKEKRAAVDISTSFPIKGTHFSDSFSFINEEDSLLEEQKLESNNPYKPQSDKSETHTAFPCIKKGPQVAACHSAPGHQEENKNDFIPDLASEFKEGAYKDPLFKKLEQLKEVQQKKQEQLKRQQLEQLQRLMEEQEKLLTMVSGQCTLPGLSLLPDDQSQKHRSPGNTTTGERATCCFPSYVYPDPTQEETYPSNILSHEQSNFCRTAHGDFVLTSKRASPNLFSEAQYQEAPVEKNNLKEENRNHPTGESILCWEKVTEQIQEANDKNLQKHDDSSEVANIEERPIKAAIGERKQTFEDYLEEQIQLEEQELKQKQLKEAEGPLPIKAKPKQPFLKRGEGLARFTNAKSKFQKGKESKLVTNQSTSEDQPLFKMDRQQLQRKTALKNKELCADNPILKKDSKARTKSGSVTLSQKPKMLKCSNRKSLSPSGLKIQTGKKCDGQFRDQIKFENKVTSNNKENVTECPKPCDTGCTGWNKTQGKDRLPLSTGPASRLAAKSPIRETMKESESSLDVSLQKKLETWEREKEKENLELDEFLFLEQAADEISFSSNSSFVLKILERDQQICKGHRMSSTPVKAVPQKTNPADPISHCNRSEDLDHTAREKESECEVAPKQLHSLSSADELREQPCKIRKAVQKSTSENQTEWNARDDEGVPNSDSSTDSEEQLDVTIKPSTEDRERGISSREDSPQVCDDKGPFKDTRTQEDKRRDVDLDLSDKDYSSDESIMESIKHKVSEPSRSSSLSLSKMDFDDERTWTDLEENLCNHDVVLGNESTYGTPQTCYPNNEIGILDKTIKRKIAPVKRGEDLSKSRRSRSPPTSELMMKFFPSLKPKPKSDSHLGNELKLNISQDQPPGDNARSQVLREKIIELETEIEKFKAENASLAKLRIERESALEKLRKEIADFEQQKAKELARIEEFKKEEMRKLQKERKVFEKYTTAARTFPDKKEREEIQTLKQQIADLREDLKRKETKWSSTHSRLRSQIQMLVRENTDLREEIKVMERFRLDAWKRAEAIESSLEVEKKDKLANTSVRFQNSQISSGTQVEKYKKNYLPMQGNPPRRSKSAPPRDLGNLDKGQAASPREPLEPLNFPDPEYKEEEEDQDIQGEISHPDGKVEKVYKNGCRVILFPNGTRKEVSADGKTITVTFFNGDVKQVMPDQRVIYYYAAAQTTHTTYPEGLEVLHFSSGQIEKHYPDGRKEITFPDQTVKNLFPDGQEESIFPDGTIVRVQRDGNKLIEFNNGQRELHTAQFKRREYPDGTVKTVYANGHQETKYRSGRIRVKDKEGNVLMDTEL
UniProt Q9P219: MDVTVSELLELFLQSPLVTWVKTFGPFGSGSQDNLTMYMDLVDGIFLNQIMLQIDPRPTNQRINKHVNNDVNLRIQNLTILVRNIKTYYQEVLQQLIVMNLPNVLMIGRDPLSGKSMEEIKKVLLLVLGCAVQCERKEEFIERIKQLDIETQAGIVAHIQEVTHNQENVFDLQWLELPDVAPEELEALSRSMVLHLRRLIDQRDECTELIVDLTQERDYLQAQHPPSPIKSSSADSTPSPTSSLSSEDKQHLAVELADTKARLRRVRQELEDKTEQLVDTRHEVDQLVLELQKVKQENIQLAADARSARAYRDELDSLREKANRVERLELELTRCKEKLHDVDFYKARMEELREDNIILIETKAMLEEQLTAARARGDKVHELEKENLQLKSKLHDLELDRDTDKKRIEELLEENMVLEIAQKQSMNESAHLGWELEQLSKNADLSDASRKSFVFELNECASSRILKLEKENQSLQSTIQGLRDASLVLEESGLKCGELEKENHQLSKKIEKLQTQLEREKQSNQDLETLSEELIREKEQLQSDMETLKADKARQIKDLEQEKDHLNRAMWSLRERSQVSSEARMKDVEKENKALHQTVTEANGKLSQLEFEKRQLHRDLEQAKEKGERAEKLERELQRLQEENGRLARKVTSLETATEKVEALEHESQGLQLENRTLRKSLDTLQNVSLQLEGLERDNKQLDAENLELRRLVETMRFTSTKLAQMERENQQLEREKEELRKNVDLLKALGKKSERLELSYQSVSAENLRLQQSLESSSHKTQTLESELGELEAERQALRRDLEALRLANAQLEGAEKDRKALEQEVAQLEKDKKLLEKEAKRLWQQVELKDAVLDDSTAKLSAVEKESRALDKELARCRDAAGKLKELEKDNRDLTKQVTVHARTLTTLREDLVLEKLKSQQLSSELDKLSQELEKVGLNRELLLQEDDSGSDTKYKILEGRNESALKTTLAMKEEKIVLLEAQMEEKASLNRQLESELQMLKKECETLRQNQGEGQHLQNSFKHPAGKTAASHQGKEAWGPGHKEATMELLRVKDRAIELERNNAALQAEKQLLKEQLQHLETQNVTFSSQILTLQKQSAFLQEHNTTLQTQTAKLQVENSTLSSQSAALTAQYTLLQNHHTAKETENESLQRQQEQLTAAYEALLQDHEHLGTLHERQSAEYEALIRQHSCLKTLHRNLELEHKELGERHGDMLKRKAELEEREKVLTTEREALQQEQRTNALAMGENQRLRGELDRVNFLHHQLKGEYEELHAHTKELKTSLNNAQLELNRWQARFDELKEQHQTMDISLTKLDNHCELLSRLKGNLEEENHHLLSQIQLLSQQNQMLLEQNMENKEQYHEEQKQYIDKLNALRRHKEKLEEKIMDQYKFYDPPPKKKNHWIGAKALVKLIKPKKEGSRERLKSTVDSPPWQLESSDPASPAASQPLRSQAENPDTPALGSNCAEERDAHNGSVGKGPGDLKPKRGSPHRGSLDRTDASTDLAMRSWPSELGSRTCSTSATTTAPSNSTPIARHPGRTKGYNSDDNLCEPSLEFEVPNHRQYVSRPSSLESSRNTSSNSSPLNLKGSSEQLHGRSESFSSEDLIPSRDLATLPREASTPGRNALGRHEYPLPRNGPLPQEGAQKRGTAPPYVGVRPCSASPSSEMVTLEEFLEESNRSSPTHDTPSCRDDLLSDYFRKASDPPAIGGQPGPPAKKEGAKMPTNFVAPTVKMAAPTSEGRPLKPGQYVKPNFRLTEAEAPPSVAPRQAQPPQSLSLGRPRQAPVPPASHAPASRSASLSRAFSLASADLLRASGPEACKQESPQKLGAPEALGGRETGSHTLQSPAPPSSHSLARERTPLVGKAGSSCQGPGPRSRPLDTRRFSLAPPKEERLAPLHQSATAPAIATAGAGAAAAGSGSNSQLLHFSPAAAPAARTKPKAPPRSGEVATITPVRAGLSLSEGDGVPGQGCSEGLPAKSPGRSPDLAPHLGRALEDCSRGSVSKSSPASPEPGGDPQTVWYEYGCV
UniProt P11802: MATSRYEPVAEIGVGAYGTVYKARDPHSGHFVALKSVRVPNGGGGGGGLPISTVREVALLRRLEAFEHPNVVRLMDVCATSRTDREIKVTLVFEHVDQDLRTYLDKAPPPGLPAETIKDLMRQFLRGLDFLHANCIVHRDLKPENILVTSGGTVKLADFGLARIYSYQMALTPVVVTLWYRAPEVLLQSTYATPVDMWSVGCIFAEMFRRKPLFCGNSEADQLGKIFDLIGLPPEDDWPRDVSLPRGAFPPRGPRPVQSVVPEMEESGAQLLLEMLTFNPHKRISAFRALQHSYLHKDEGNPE
UniProt Q00535, whole entry, looked up: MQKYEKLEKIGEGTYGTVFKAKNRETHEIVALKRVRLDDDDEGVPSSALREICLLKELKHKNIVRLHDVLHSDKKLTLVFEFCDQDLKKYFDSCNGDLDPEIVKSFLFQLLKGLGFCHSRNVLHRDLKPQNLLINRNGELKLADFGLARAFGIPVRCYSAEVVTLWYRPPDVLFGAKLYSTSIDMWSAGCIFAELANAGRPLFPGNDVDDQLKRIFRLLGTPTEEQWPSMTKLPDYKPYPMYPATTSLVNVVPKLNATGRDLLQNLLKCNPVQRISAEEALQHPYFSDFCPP
UniProt Q5JTW2: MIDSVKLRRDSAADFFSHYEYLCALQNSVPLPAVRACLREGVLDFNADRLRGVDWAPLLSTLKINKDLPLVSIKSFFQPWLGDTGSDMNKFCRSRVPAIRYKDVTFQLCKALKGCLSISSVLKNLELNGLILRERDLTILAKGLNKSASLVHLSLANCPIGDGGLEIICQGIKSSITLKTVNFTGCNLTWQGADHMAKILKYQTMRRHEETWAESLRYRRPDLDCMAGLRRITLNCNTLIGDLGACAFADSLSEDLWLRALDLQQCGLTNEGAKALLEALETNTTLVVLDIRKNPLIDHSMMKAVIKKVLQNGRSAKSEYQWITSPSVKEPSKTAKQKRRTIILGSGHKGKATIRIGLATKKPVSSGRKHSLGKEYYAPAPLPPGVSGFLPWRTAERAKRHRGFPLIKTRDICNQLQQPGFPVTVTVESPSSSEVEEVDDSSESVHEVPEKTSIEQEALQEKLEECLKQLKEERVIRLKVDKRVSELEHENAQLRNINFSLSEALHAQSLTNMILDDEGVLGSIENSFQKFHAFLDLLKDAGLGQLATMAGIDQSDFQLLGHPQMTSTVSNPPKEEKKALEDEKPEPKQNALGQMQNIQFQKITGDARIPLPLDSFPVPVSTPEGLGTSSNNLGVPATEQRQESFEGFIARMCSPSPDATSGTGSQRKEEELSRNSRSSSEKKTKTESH
UniProt Q9H0W5: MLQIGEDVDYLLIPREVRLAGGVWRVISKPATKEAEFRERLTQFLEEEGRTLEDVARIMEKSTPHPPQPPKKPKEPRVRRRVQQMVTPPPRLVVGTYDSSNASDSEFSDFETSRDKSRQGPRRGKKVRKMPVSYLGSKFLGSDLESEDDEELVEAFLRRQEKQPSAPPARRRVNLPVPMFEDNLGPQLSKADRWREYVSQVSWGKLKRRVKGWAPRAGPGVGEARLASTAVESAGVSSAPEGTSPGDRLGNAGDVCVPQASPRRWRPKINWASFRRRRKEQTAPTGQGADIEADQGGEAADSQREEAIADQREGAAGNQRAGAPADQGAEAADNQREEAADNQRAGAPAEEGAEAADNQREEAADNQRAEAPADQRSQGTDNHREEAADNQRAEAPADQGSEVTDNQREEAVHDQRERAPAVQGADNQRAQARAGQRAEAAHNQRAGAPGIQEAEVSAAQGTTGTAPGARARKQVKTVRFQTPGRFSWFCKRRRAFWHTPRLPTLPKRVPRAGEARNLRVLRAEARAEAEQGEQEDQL
UniProt Q12873, 1537-1563: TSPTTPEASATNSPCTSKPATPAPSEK
UniProt Q96A33: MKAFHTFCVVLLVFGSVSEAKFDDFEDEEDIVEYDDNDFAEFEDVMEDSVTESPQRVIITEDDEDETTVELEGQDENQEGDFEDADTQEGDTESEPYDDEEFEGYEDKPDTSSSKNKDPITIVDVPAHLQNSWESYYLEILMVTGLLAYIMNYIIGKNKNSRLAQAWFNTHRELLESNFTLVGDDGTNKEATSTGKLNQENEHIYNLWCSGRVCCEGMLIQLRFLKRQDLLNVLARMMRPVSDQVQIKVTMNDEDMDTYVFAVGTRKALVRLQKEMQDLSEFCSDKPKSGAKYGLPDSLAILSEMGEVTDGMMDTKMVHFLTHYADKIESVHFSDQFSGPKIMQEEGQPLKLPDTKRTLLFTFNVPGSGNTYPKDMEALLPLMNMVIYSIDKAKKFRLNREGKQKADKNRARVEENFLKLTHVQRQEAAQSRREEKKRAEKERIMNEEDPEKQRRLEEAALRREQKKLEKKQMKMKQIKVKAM

The other results are listed elsewhere or left out. The data scatter; read single values as rough.

Compound in this assay: ClCC(=O)N[C@@H]1CCCc2ccccc12
Kind of assay: log2 mean competition ratio of IA-DTB cysteine labelling (DMSO/compound) (log2 ratio); higher = stronger cysteine engagement by compound. The note with it: 200 µM; treatment time: 4 h; cell line lysate: HEK293T. The procedure: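 IA-DTB competitive cysteine chemoproteomics in HEK293T RIPA lysate. Lysates were treated with compound 29 or 30 at 50 or 200 µM for 4 h, then IA-DTB (500 µM, 1 h), trypsin-digested, NeutrAvidin-enriched and analysed by diaPASEF. Competition ratio = intensity DMSO / intensity compound (n=4 treated, n=64 DMSO); binding: mean log2 CR ≥ 1 and p ≤ 0.05 plus QC filters. Target is the cysteine site.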
On to CEP104 C525 (UniProt O60308), for which the “log2 mean competition ratio” value worked out at 0.015.
Take CENPF C1328 (UniProt P49454): the “log2 mean competition ratio” value worked out at 0.0722.
Then CHAMP1 C592 (UniProt Q96JM3), with 0.145; and CENPB C259 (UniProt P07199), with -0.166.
Take CCND2 C5 (UniProt P30279): the “log2 mean competition ratio” value amounted to 0.321.
Then CENPJ C294 (UniProt Q9HC77), with 0.156; and CCDC88C C1467 (UniProt Q9P219), with -0.591.
Consider CDC42 C157, for which the “log2 mean competition ratio” value amounted to 0.197.
Take CEP135 C316 (UniProt Q66GS9): the “log2 mean competition ratio” value is -0.0396.
On to CD99L2 C236 (UniProt Q8TCZ2), for which the “log2 mean competition ratio” value was -0.522.
On to CDK4 C215 (UniProt P11802), for which the “log2 mean competition ratio” value stood at 0.0445.
Then CHAF1A C761 (UniProt Q13111), with 0.0622; and CENPS C58 (UniProt Q8N2Z9), with -0.179.
Take CDYL C515 (UniProt Q9Y232): the “log2 mean competition ratio” value was -0.0853.
Then CDK5 C117 (UniProt Q00535), with -0.119; and CCT3 C398, with -0.0121.
With CEP78 C653 (UniProt Q5JTW2), the “log2 mean competition ratio” value is -0.1.
Then CCT4 C337 (UniProt P50991), with -0.0261; and CENPF C1671 (UniProt P49454), with -0.0532; and CCDC8 C256 (UniProt Q9H0W5), with -0.0123.
As to CHD3 C1551 (UniProt Q12873), the “log2 mean competition ratio” value was -0.427.
As to CENPE C2626 (UniProt Q02224), the “log2 mean competition ratio” value was determined as 0.165.
Regarding CCT7 C370 (UniProt Q99832), the “log2 mean competition ratio” value was -0.236.
In the case of CDKN2AIP C516 (UniProt Q9NXV6) it was -0.349.
On to CCDC47 C283 (UniProt Q96A33), for which the “log2 mean competition ratio” value is -0.0103.
For CDAN1 C1213, the “log2 mean competition ratio” value was -0.0216.
Then CENPK C38 (UniProt Q9BS16), with 0.0892.
